Results are given in words; binding and its absence hold for the method and conditions named. Binding seen in cells or lysates may run through a third protein. Some binding calls cover weakened binding; strength is not graded here.
Molecular target: Flag-tagged HPV8-E6wt (human papillomavirus type 8) (UniProt P06428)
Experiment: co-IP; extracts of transiently transfected C33a cells incubated with M2-FLAG-agarose for 2 h at 4 °C, three washes with LSDB containing different KCl concentrations; co-precipitated endogenous protein detected by Western blot

Amino acid sequences for entries named in this document (tags omitted).
UniProt P06428: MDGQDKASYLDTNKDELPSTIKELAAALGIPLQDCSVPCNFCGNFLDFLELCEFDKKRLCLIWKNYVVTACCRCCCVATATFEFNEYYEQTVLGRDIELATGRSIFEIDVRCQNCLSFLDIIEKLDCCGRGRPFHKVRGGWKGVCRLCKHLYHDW
UniProt Q01968: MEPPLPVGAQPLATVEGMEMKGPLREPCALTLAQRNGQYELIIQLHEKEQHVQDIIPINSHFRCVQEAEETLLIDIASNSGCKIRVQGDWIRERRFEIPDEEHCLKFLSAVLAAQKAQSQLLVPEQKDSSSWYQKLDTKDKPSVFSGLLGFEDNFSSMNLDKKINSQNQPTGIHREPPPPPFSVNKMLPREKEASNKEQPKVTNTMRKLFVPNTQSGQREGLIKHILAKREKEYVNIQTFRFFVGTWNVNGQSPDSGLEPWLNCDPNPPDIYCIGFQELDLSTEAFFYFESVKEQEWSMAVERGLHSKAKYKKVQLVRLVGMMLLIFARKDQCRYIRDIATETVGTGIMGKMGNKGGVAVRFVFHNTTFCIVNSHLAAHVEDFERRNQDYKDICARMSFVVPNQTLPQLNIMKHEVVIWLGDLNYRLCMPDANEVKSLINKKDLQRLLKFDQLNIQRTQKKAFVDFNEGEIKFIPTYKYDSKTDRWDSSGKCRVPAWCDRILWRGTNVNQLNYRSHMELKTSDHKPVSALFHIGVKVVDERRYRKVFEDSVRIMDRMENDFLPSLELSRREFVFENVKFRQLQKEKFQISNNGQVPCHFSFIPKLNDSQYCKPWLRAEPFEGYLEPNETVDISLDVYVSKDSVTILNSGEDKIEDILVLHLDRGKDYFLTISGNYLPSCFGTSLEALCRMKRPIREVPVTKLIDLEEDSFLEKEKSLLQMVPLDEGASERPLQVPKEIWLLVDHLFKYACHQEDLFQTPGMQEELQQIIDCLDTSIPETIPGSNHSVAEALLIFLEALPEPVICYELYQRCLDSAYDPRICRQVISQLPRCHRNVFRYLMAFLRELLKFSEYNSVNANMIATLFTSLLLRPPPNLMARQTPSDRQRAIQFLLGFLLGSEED
UniProt Q92585: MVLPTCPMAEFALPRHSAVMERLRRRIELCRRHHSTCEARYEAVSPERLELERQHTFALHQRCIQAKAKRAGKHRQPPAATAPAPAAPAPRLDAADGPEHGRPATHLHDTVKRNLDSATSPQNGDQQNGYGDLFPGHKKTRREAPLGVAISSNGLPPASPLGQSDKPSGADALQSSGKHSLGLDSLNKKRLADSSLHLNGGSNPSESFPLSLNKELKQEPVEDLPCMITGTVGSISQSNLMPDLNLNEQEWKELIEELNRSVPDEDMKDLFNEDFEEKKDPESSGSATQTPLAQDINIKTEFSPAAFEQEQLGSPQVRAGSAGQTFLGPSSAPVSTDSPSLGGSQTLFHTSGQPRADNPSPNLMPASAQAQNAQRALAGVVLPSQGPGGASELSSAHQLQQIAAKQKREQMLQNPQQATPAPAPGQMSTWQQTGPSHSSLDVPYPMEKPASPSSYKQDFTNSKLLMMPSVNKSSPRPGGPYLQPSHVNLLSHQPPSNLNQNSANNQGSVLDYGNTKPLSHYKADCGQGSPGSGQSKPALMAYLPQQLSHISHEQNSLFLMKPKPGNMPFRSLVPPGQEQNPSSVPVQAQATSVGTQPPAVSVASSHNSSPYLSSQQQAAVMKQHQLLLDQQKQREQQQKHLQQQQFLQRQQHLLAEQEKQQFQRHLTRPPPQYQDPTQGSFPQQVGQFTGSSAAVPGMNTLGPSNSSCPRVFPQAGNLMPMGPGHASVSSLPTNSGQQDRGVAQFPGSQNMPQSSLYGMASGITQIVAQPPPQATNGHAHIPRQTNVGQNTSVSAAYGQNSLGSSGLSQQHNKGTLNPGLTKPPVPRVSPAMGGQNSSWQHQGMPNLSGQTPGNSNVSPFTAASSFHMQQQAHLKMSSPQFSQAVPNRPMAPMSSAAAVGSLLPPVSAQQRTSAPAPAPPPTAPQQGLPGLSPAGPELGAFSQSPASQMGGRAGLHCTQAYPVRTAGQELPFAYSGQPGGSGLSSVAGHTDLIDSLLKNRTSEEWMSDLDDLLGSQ

| Substance | binding |
| --- | --- |
| inositol-polyphosphate-5-phosphatase (OCRL1) (from UniProt Q01968 1-901) (enzyme) | binds |
| Mastermind-like protein 1 (MAML1) (from UniProt Q92585 1-1016) | binds |

— publication PMC6183346
